Literature values, collected in patent US6955908B1, “Organism associated with nongonococcal urethritis” (priority 2000, dated 2005).
At least one compound was matched to its structure with a doubt left.

How the values were obtained:
Chlamydia = details: in vivo; cited from earlier work
Ureaplasma = details: in vivo; cited from earlier work

## C[C@H]1c2cccc(O)c2C(=O)C2=C(O)[C@]3(O)C(=O)C(C(N)=O)=C(O)[C@@H](N(C)C)[C@@H]3[C@@H](O)[C@@H]21 [Doxycycline]
Chlamydia
  effectiveness against strains of Chlamydia: effective against all strains
Ureaplasma
  Ureaplasma strains resistant: 10%
